Data as given in PubChem BioAssay AID1224830 (NIAID, 2016).

- Assay: 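Regulators of TLR4 signalling towards TNF-alpha in macrophage-like cells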 (primary screen)
- Cell system: human THP-1 monocytic leukaemia cells, TNF dual-luciferase reporter clone, PMA-differentiated to macrophage-like cells
- Knock-down reagent: siRNA pool against human genes, 50 nM
- Duration: LPS for 4 h, given about 3 days after siRNA transfection
- Conditions: bacterial LPS (TLR4 ligand), 10 ng/ml
- Measured: 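TNF firefly reporter luminescence divided by renilla, normalised to the plate median, then turned into a robust z-score for each replicate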
- Scale: TNF reporter robust z-score: higher = stronger TNF reporter response to LPS
- Hit rule: 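a well is active when its z-score exceeds 2.8 or falls below -1.5; control wells carry no call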
The deposit covers about 18,000 reagents; shown is an unselected part. In the full data, about 2,900 (16%) were called active. 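Calls are made per well; low scores hint the gene aids the LPS response, high scores that it dampens it.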 Repeated entries: four replicate wells of each siRNA pool. No sequences are given here.

| gene | TNF reporter robust z-score | Call |
| --- | --- | --- |
| PIGY | 0.46 | inactive |
| PIGY | 0 | inactive |
| PIGY | 0.23 | inactive |
| PIGY | -0.22 | inactive |
| ZNF648 | -0.44 | inactive |
| ZNF648 | -1.02 | inactive |
| ZNF648 | -0.37 | inactive |
| ZNF648 | -0.59 | inactive |
| IL18BP | -1.21 | inactive |
| IL18BP | -0.68 | inactive |
| IL18BP | -0.9 | inactive |
| STK10 | -0.33 | inactive |
| STK10 | 1.35 | inactive |
| STK10 | 0.06 | inactive |
| STK10 | 1.08 | inactive |
| PACS2 | -0.61 | inactive |
| PACS2 | -0.48 | inactive |
| PACS2 | -0.5 | inactive |
| PACS2 | -0.07 | inactive |
| AQP4 | -1.71 | active |
| AQP4 | -1.35 | inactive |
| AQP4 | -1.51 | active |
| AQP4 | -0.9 | inactive |
| GNPNAT1 | -0.42 | inactive |
| GNPNAT1 | -0.7 | inactive |
| GNPNAT1 | -0.78 | inactive |
| GNPNAT1 | -0.23 | inactive |
| PCGF6 | -0.1 | inactive |
| PCGF6 | 0.98 | inactive |
| PCGF6 | -0.64 | inactive |
| PCGF6 | -0.82 | inactive |
| BTBD10 | -0.43 | inactive |
| BTBD10 | 0.28 | inactive |
| BTBD10 | 1.31 | inactive |
| BTBD10 | -1.55 | active |
| PLXDC1 | -1 | inactive |
| PLXDC1 | -1.78 | active |
| PLXDC1 | -1.87 | active |
| PLXDC1 | -1.58 | active |
| RAB33B | -0.54 | inactive |
| RAB33B | 0.43 | inactive |
| RAB33B | 0.11 | inactive |
| RAB33B | 1.12 | inactive |
| RPS6KA3 | 0.62 | inactive |
| RPS6KA3 | 0.77 | inactive |
| RPS6KA3 | 0.58 | inactive |
| RPS6KA3 | 1.36 | inactive |
| NDNF | -0.21 | inactive |
| NDNF | 0.63 | inactive |
| NDNF | 0.68 | inactive |
| NDNF | 1.53 | inactive |
| CASK | -0.02 | inactive |
| CASK | 0.37 | inactive |
| CASK | -0.43 | inactive |
| CASK | -0.76 | inactive |
| MLIP | -2.04 | active |
| MLIP | -1.66 | active |
| MLIP | -2.14 | active |
| MLIP | -1.27 | inactive |

20 of these entries, set out differently.
GNPNAT1
- TNF reporter robust z-score: -0.23
- Call: inactive

PCGF6
- TNF reporter robust z-score: -0.1
- Call: inactive

PCGF6
- TNF reporter robust z-score: 0.98
- Call: inactive

PCGF6
- TNF reporter robust z-score: -0.64
- Call: inactive

PCGF6
- TNF reporter robust z-score: -0.82
- Call: inactive

BTBD10
- TNF reporter robust z-score: -0.43
- Call: inactive

BTBD10
- TNF reporter robust z-score: 0.28
- Call: inactive

BTBD10
- TNF reporter robust z-score: 1.31
- Call: inactive

BTBD10
- TNF reporter robust z-score: -1.55
- Call: active

PLXDC1
- TNF reporter robust z-score: -1
- Call: inactive

PLXDC1
- TNF reporter robust z-score: -1.78
- Call: active

PLXDC1
- TNF reporter robust z-score: -1.87
- Call: active

PLXDC1
- TNF reporter robust z-score: -1.58
- Call: active

RAB33B
- TNF reporter robust z-score: -0.54
- Call: inactive

RAB33B
- TNF reporter robust z-score: 0.43
- Call: inactive

RAB33B
- TNF reporter robust z-score: 0.11
- Call: inactive

RAB33B
- TNF reporter robust z-score: 1.12
- Call: inactive

RPS6KA3
- TNF reporter robust z-score: 0.62
- Call: inactive

RPS6KA3
- TNF reporter robust z-score: 0.77
- Call: inactive

RPS6KA3
- TNF reporter robust z-score: 0.58
- Call: inactive

The listing continues.
| gene | TNF reporter robust z-score | Call |
| --- | --- | --- |
| MDP1 | 0.08 | inactive |
| MDP1 | -0.09 | inactive |
| MDP1 | 0.8 | inactive |
| MDP1 | 0 | inactive |
| CARS2 | 0.31 | inactive |
| CARS2 | 0.02 | inactive |
| CARS2 | -0.15 | inactive |
| CARS2 | 0.12 | inactive |
| HYPK | -1.16 | inactive |
| HYPK | -0.91 | inactive |
| HYPK | -1.96 | active |
| HYPK | -1.49 | inactive |
| TAS2R5 | 1.56 | inactive |
| TAS2R5 | 2.13 | inactive |
| TAS2R5 | 0.71 | inactive |
| TAS2R5 | 1.44 | inactive |
| WIF1 | -0.77 | inactive |
| WIF1 | -0.74 | inactive |
| WIF1 | 0.08 | inactive |
| WIF1 | 0.18 | inactive |
| RAB26 | 1.18 | inactive |
| RAB26 | 1.91 | inactive |
| RAB26 | 1.67 | inactive |
| RAB26 | 0.26 | inactive |
| CXorf66 | -0.98 | inactive |
| CXorf66 | -0.57 | inactive |
| CXorf66 | -0.44 | inactive |
| CXorf66 | 0.27 | inactive |
| COPZ2 | 2.07 | inactive |
| COPZ2 | 0.25 | inactive |
| COPZ2 | 0.52 | inactive |
| COPZ2 | 0.56 | inactive |
| LGI3 | 0.63 | inactive |
| LGI3 | 1.67 | inactive |
| LGI3 | 1.38 | inactive |
| LGI3 | 1.66 | inactive |
| ITPRIPL1 | 0.23 | inactive |
| ITPRIPL1 | -0.51 | inactive |
| ITPRIPL1 | -0.85 | inactive |
| ITPRIPL1 | 2.44 | inactive |
| RDH13 | -0.9 | inactive |
| RDH13 | -1.04 | inactive |
| RDH13 | -0.81 | inactive |
| RDH13 | -0.07 | inactive |
| ADORA3 | -2.04 | active |
| ADORA3 | -1.65 | active |
| ADORA3 | -1.31 | inactive |
| ADORA3 | -1.41 | inactive |
| PCBD1 | 3.33 | active |
| PCBD1 | 0.63 | inactive |
| PCBD1 | 0.64 | inactive |
| PCBD1 | 0.33 | inactive |
| NPY5R | -0.25 | inactive |
| NPY5R | -0.71 | inactive |
| NPY5R | -0.15 | inactive |
| NPY5R | -0.31 | inactive |
| PRMT2 | 1.95 | inactive |
| PRMT2 | 1.06 | inactive |
| PRMT2 | 0.78 | inactive |
| PRMT2 | 1.08 | inactive |
| GDF2 | 0.09 | inactive |
| GDF2 | -0.12 | inactive |
| GDF2 | -0.59 | inactive |
| GDF2 | 0.07 | inactive |
| HGF | 1.92 | inactive |
| HGF | 0.27 | inactive |
| HGF | 1.68 | inactive |
| HGF | 0.6 | inactive |
| BMP10 | 0.52 | inactive |
| BMP10 | 2.29 | inactive |
| BMP10 | 1.21 | inactive |
| BMP10 | 1.28 | inactive |
| MTA2 | -1.61 | active |
| MTA2 | -2.01 | active |
| MTA2 | -1.7 | active |
| MTA2 | -1.2 | inactive |
| STAP1 | -0.08 | inactive |
| STAP1 | 0.42 | inactive |
| STAP1 | -0.89 | inactive |
| STAP1 | -0.92 | inactive |
| CHST10 | -0.9 | inactive |
| CHST10 | -1.33 | inactive |
| CHST10 | -0.91 | inactive |
| CHST10 | -0.79 | inactive |
